Results are given in words; binding and its absence hold for the method and conditions named. Binding seen in cells or lysates may run through a third protein. Some results given as binding are weak or reduced against the parent protein; the word gives no strength.
Legend:
[1] = biological target: IκBα (human (endogenous in THP-1)) (UniProt P25963); test: co-IP; endogenous proteins in THP-1 cell lysates (100 μg protein), 2 μg antibody, TENDS buffer (20 mM Tris HCl pH 8.0, 1 mM EDTA, 2 mM DTT, 0.25 M sucrose), 4°C, protein A/G-agarose, immunoblot; cells exposed to vehicle, olaparib, oxLDL (100 μg/mL, 24 hr) or oxLDL with olaparib; normal rabbit IgG as control
[2] = biological target: RelA (p65) (human (endogenous in THP-1)) (UniProt Q04206); test: as above

Amino acid sequences for entries named in this document (tags omitted). Residues count along the entry.
UniProt P25963: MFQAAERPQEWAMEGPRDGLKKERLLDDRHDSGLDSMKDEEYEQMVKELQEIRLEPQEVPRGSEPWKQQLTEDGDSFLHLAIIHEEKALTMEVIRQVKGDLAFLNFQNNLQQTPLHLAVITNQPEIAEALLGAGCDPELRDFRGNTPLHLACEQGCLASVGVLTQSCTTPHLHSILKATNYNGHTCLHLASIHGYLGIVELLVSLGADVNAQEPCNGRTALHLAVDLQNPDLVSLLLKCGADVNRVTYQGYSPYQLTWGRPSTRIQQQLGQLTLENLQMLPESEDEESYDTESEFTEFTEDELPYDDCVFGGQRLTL
UniProt Q04206: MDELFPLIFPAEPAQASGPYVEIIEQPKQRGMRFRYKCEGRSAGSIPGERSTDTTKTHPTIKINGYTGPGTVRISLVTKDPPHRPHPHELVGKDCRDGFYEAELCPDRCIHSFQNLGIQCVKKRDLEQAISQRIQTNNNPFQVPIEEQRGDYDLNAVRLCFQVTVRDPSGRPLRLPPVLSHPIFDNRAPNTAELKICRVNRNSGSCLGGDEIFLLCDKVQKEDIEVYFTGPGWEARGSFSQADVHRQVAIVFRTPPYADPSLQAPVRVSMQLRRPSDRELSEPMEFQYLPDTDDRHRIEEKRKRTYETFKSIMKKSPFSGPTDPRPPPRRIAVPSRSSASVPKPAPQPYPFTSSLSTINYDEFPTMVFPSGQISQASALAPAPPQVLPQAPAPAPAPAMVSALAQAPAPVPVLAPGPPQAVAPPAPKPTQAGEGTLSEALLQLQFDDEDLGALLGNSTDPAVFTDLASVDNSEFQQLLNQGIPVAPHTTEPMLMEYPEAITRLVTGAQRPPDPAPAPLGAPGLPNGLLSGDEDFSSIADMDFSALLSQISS
UniProt P19838, residues 1-433: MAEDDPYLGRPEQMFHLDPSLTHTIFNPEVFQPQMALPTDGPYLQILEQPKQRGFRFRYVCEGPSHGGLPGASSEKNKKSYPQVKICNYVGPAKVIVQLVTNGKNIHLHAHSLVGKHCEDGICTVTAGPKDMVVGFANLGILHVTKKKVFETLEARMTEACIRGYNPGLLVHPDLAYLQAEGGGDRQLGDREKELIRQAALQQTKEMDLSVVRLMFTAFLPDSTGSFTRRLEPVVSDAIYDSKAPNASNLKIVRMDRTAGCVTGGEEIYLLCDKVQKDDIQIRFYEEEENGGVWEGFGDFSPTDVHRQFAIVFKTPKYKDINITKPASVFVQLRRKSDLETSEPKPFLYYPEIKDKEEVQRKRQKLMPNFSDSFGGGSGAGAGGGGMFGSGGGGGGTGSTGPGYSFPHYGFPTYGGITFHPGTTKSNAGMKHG

Substance: NF-κB1 p50 (from UniProt P19838 1-433)
- binding [1]: binds
- binding [2]: binds
